# Results taken from PubChem BioAssay AID1347076 (National Center for Advancing Translational Sciences (NCATS), 2019).
# Screen size: about 400,000 compounds; about 13,000 (3.2%) were called active. Inconclusive results, whose numbers are uncertain, are shown with a selection of clear calls. Calls come from the whole dose curve; as a rule, active = well fitted cell-killing curve with a large enough effect; inconclusive = small, poorly fitted or top-dose-only effect, or effect the other way; inactive = flat fitted curve, though single readings scatter. Potencies beside an inconclusive call are fits to weak or partial responses and may not hold up.
# Experiment: qHTS assay for MDR1-selective chemotherapeutics: Primary screen using the drug-selected MDR subline cells KB-V1; note: nearly all actives have a fitted effect of over 60% in size
# Conditions: KB-V1 MDR cells viability, CellTiter-Glo, 72 h; activity change, negative = cytotoxicity: at 46.1 µM (top of the series)
# How it was run: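 Readout: CellTiter-Glo luminescence, 10 min after addition. Cells: KB-V1 MDR subline, 72 h at 37 degrees C with compound. Analysis: corrected, normalized data fitted to concentration-effect curves.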
# % is set by controls: 0 for no effect and ±100 for the full control effect; potency is the fitted concentration of half-maximal effect.
SMILES,"activity change, negative = cytotoxicity",Potency
COC(=O)CC1C(=O)NCCN1C(=O)CSc1nnnn1-c1ccc(OC)cc1 (centres undefined),inactive: 10.8%,
COc1cccc(CC(=O)OCC(=O)NCC(=O)Nc2cccc(C)c2C)c1,,"inconclusive: 29.1 µM [rising, single point]"
COc1ccc(NS(=O)(=O)c2cccc(C(=O)N3CCC3)c2)cc1,inactive: -14.7%,
Cc1cccc(NC(=O)CN2CCN(CC(=O)Nc3cccc(C)c3)CC2)c1,,"inconclusive: 13 µM [cytotoxic, partial curve]"
Nc1ccc(NC(=O)c2cccc(C(=O)Nc3ccc(N)cc3Cl)c2)c(Cl)c1,,"inconclusive: 23.1 µM [cytotoxic, partial curve]"
Cc1cccc(C)c1NC(=O)CN1CCN(C(=O)CNC(=O)c2ccc(-c3ccccc3)cc2)CC1,,active: 18.4 µM
CCOc1ccccc1NC(C)C(=O)Nc1cc(C(F)(F)F)ccc1N1CCOCC1 (centres undefined),,active: 5.8 µM
CCN(CC)CCNc1ccc(CO)c2sc3ccccc3c(=O)c12,,"inconclusive: 20.6 µM [cytotoxic, partial curve, poor fit]"
c1ccc2c(Nc3nnc(-c4ccncc4)s3)cccc2c1,,active: 14.6 µM
O=C(CSc1ncnc2sccc12)NCc1ccc2c(c1)OCO2,inconclusive: 7.24%,
CC(C)c1ccc(S(=O)(=O)N2CCN(C(=O)c3ccncc3)CC2)cc1,inactive: -26.7%,
COc1ccc(NC(=O)CN(c2cc(C)cc(C)c2)S(=O)(=O)c2c(C)n[nH]c2C)cc1,,"inconclusive: 2.91 µM [cytotoxic, partial curve, poor fit]"
COc1ccccc1C(=O)COC(=O)c1ccc(Cl)nc1,,"inconclusive: 29.1 µM [rising, single point]"
O=C(CCNC(=O)c1ccco1)Nc1ccc(SC(F)F)cc1,,"inconclusive: 13 µM [rising, partial curve, poor fit]"
Cc1csc(NC(=O)CCn2c(=O)sc3ccccc32)n1,,active: 23.1 µM
Cc1nc(N2CCCCCC2)c2ccccc2n1,,"inconclusive: 5.8 µM [cytotoxic, full curve]"
O=C(NCCC1CCCCN1S(=O)(=O)c1ccccc1)C(=O)Nc1ccc(F)cc1F (centres undefined),,"inconclusive: 29.1 µM [cytotoxic, single point]"
Cc1ccc(S(=O)(=O)/N=C2/NC(=O)/C(=C/c3cccnc3)S2)cc1,inactive: -0.935%,
Cc1ccccc1C(=O)NC(CC(C)C)C(=O)NCC(C)(C)N1CCOCC1 (centres undefined),,active: 23.1 µM
Cc1cc(C)c[n+](-c2nc3ccccc3nc2[N-]S(=O)(=O)c2cccs2)c1,,"inconclusive: 29.1 µM [rising, single point]"
COc1ccc(CN(C)C(=O)c2ccccc2Sc2ccccc2C#N)c(OC)c1,,"inconclusive: 20.6 µM [cytotoxic, partial curve]"
CC(=O)c1cccc(N2Cc3ccccc3C2=NC(=O)CCl)c1,,"inconclusive: 0.651 µM [cytotoxic, partial curve, poor fit]"
N#Cc1nc(-c2ccc(OCc3ccccc3)cc2)oc1NCCCn1ccnc1,,active: 23.1 µM

# Gathered by group: the compounds so far with a thiophene ring, fused or not.
SMILES,"activity change, negative = cytotoxicity",Potency
O=C(CSc1ncnc2sccc12)NCc1ccc2c(c1)OCO2,inconclusive: 7.24%,
Cc1cc(C)c[n+](-c2nc3ccccc3nc2[N-]S(=O)(=O)c2cccs2)c1,,"inconclusive: 29.1 µM [rising, single point]"

# (cont.)

SMILES,"activity change, negative = cytotoxicity",Potency
O=C(O)CSc1nnc(COc2ccccc2)n1-c1ccccc1,inactive: 12.2%,
FC(F)(F)c1cc(-c2cccs2)nc2nc(N3CCOCC3)sc12,,"inconclusive: 23.1 µM [cytotoxic, partial curve, poor fit]"
COc1ccc(S(=O)(=O)N2CCC(NC(=O)OCc3c(Cl)cccc3Cl)CC2)cc1,,active: 8.2 µM
CC1Cc2cc(-c3csc(NC(=O)Cc4cccs4)n3)ccc2N1S(C)(=O)=O (centres undefined),,active: 2.59 µM
CC(/C=N/NC(=O)c1cccc(F)c1)=C\c1ccccc1,,"inconclusive: 16.4 µM [cytotoxic, single point]"
O=C(CN1C(=O)NC2(CCc3ccccc32)C1=O)c1c[nH]c2ccccc12 (centres undefined),inconclusive: -4.41%,
COc1ccc(C(C(=O)NC(C)(C)C)n2c(-c3ccc(C(F)(F)F)cc3)nc3ccccc32)cc1 (centres undefined),inactive: -13.8%,
CC(C)(C)SCCNC(=O)CN(c1ccc(F)c(Cl)c1)S(C)(=O)=O,,active: 18.4 µM
Cc1c(C(=O)OCC(=O)N2CCC(C)CC2)oc2ccccc12,,"inconclusive: 29.1 µM [cytotoxic, single point]"
Cn1c(=O)c2c(nc(N3CCOCC3)n2Cc2cccc(Br)c2)n(C)c1=O,,"inconclusive: 8.2 µM [cytotoxic, partial curve]"
CC(C)NC(=O)NC(=O)COC(=O)c1cccc(S(=O)(=O)N2CCCCC2)c1,,"inconclusive: 18.4 µM [cytotoxic, partial curve]"
CC(=O)c1sc(NC(=O)CCS(=O)(=O)c2ccc(C)cc2)nc1C,,"inconclusive: 29.1 µM [rising, single point]"
COc1ccccc1OCC(=O)Nc1ccc(S(=O)(=O)N(C)c2ccccc2)cc1,,"inconclusive: 1.64 µM [cytotoxic, partial curve, poor fit]"
CCc1noc(C)c1C(=O)N(C)CC(=O)Nc1ccccc1C(F)(F)F,inactive: -10.5%,
O=C(COC(=O)Cc1c(F)cccc1Cl)NC1CCS(=O)(=O)C1 (centres undefined),inactive: -2.74%,
CCOC(=O)c1cnc(C(C)(C)C)[nH]c1=O,,"inconclusive: 29.1 µM [rising, single point]"
Cc1nnc(SCC(=O)N2CCOCC2)[nH]c1=O,,"inconclusive: 18.4 µM [rising, single point]"
Cc1nn2c(-c3ccco3)ccnc2c1-c1ccc(Br)cc1,,"inconclusive: 25.9 µM [rising, partial curve, poor fit]"
CCCC[N+](C)(C)CCC(=O)NC(C)(C)CS(=O)(=O)[O-],,"inconclusive: 18.4 µM [rising, partial curve, poor fit]"
S=C1Cc2ccccc2N1,,"inconclusive: 29.1 µM [cytotoxic, single point]"
O=S(=O)(NCC1CCN(Cc2ccccc2)CC1)c1ccccc1C(F)(F)F,,"inconclusive: 9.2 µM [cytotoxic, partial curve, poor fit]"
CN(C)c1ncnc2sc(-c3ccccc3)cc12,,"inconclusive: 20.6 µM [cytotoxic, single point]"
CN(C)CCSc1nc(O)c(-c2ccccc2)c(=O)n1-c1ccccc1,inactive: 19.4%,

SMILES,"activity change, negative = cytotoxicity",Potency
COc1ccc(CNC(=O)C(=O)NCCCn2ccnc2)cc1,inactive: -16%,
Cc1ccc2nc(-c3cccc(SC4CCCCC4)c3)c(NCc3ccccc3)n2c1,,"inconclusive: 16.4 µM [cytotoxic, partial curve]"
Cc1ccc(C)c(N(CC(=O)NCc2ccc3c(c2)OCO3)C(=O)CCC(=O)Nc2ccccn2)c1,,"inconclusive: 7.31 µM [cytotoxic, partial curve]"
COc1ccccc1CNC(=O)C(C)n1ccc2cc(S(=O)(=O)N3CCCC3)ccc21 (centres undefined),,"inconclusive: 29.1 µM [cytotoxic, single point]"
CCOC(=O)C1CCCN(C(=O)c2cc3cc(Br)ccc3oc2=O)C1 (centres undefined),inactive: 3.15%,
CCOc1ccc(CCNC(=O)c2ccc(C)c(S(=O)(=O)N3CCOCC3)c2)cc1OCC,,active: 20.6 µM
Cc1ccc(NC(=O)c2ccc3c(c2)CCN3S(C)(=O)=O)cc1,,"inconclusive: 23.1 µM [cytotoxic, partial curve, poor fit]"
Cc1cccc(N2CCN(C(=O)C3CCN(C(=O)c4cc5sccc5n4C)CC3)CC2)c1C,inactive: -9.11%,
O=C(Nc1nnc(-c2ccc(Cl)cc2)o1)c1ccccc1Br,,active: 6.51 µM
Cc1ccc(C2Nc3cc(C)c(C)cc3-n3c(-c4ccccc4)c4c(=O)n(C)c(=O)n(C)c4c32)o1 (centres undefined),,"inconclusive: 29.1 µM [cytotoxic, single point]"
COc1ccccc1-c1nn2c(-c3cc(-c4ccccc4)n[nH]3)nnc2s1,,"inconclusive: 29.1 µM [rising, single point]"
CCOC(=O)c1c(C)oc2nc(C)nc(N3CCN(c4ccccc4F)CC3)c12,inactive: 0%,
COc1cc(/C=C/C(=O)c2c(O)ccc3c(C)cc(=O)oc23)ccc1O,,"inconclusive: 18.4 µM [cytotoxic, single point]"
CC(C)(C)OC(=O)C[C@@H]1C/C=C\C[C@H](CC(=O)NCCO)C(=O)N[C@H](Cc2ccccc2)COC1=O,,"inconclusive: 5.8 µM [rising, full curve, poor fit]"
CCOc1ccc(NC(=O)C2CCN(c3nnc(C)c4c(C)n(-c5ccccc5)nc34)CC2)cc1,inactive: -0.98%,
C#CCNC(=O)C1=C[C@H](c2csc3ccccc23)[C@@H](CCCO)[C@H](OCC)O1,,"inconclusive: 29.1 µM [rising, single point]"
COC(=O)C1=C(C(=O)OC)[C@@H]2N(Cc3ccccc3)c3ccccc3[C@@]23C[C@@H](C(=O)OC)N(C(=O)c2cccs2)C3=N1,,"inconclusive: 18.4 µM [cytotoxic, partial curve, poor fit]"
O=C(N/N=C/c1ccsc1)c1cc(-c2ccncc2)nc2ccccc12,,active: 8.2 µM
COCCN(C(=S)Nc1c(C)cccc1C)C(C)c1cccs1 (centres undefined),,"inconclusive: 14.6 µM [cytotoxic, partial curve]"
CCN(c1ccccc1)S(=O)(=O)c1cc(Br)cc2c1N(C(=O)C1CC1)CC2,,"inconclusive: 23.1 µM [cytotoxic, partial curve]"
Cc1csc(CNC(=O)c2cc(COc3c(C)cccc3C)on2)n1,,"inconclusive: 0.92 µM [cytotoxic, partial curve, poor fit]"
N#Cc1c(-c2cccs2)cc(-c2cccnc2)nc1N,,"inconclusive: 16.4 µM [cytotoxic, single point]"
CCOC(=O)c1sc(NC(=O)C2CC(=O)N(c3ccc4c(c3)OCCO4)C2)nc1C (centres undefined),inactive: 22.2%,

# Entries of single compounds, quoted from the list.
# Cc1nnc(SCC(=O)N2CCOCC2)[nH]c1=O is entered as Potency: inconclusive: 18.4 µM [rising, single point]
# COc1ccccc1CNC(=O)C(C)n1ccc2cc(S(=O)(=O)N3CCCC3)ccc21 (centres undefined) is entered as Potency: inconclusive: 29.1 µM [cytotoxic, single point]
